Source: publication doi:10.1101/2022.08.24.504515

The chains behind the UniProt entries cited, without tags or fusion partners.
UniProt Q9UQB8: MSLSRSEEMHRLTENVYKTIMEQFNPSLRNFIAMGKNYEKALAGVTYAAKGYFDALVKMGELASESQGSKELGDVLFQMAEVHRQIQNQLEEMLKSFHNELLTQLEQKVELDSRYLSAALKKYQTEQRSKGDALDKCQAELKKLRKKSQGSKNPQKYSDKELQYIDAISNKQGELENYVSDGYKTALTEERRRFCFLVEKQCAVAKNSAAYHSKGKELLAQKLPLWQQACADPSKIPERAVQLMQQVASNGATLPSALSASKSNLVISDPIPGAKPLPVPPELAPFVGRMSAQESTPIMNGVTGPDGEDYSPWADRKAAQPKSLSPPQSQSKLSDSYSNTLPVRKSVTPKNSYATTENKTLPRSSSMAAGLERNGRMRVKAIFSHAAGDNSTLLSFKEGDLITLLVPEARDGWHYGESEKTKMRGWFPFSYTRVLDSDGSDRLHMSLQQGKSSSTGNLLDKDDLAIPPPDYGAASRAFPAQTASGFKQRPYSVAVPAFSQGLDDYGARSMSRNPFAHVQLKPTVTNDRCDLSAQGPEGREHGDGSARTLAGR

B1: Drebrin (protein, UniProt Q9QXS6 1-706)
chain: MAGVSFSGHRLELLAAYEEVIREESAADWALYTYEDGSDDLKLAASGEGGLQELSGHFENQKVMYGFCSVKDSQAALPKYVLINWVGEDVPDARKCACASHVAKVAEFFQGVDVIVNASSVEDIDAGAIGQRLSNGLARLSSPVLHRLRLREDENAEPVGTTYQKTDAAVEMKRINREQFWEQAKKEEELRKEEERKKALDARLRFEQERMEQERQEQEERERRYREREQQIEEHRRKQQSLEAEEAKRRLKEQSIFGDQRDEEEESQMKKSESEVEEAAAIIAQRPDNPREFFRQQERVASASGGSCDAPAPAPFNHRPGRPYCPFIKASDSGPSSSSSSSSSPPRTPFPYITCHRTPNLSSSLPCSHLDSHRRMAPTPIPTRSPSDSSTASTPIAEQIERALDEVTSSQPPPPPPPPPPTQEAQETTPSLDEELSKEAKVTAAPEVWAGCAAEPPQAQEPPLLQSSPLEDSMCTESPEQAALAAPAEPAASVTSVADVHAADTIETTTATTDTTIANNVTPAAASLIDLWPGNGEEASTLQAEPRVPTPPSGAEASLAEVPLLNEAAQEPLPPVGEGCANLLNFDELPEPPATFCDPEEEVGETLAASQVLTMPSALEEVDQVLEQELEPEPHLLTNGETTQKEGTQASEGYFSQSQEEEFAQSEEPCAKVPPPVFYNKPPEIDITCWDADPVPEEEEGFEGGD
B2: delphilin (protein, UniProt Q0QWG9 1-1203)
chain: MPATNQGWPEDFGFQLGGSGPCFVIEVAEGSSAHAGGLRPGDQILEVEGLAVGGLSRERIVRLARRCPRVPPSLGVLPGPEGGPTALTAAWLTRRFGRSLPLSRELLRLAGGPRPDAVHRERRRKAQEFSCQVDDILGDRLTAKEQVFTALKQFAAEQRVDELVWTLTLVLPSEAQGPVLDNLRIFIPKKHRARFDEVVSQGLLGKLCRARRAQGAQRLRRSRSEERPERLLVSTRASAAPRRPDEPPPRKATSLLGGRTGPGGPRRTVRVYKGNKSFGFTLRGHGPVWIESVLPGSPAENASLKSGDRILFLNGLDMRNCSHDKVVSMLQGSGAMPTLVVEEGPVPFASDSDSLDSPTRASALTSLQWVADILPSSIRVQGRTFSQQLDHLLTPPERYGVCRALERFFQHRNIDTLIVDVYPVLDTPAKQVLWQFLYQLLTYEEQELCQEKIACFLGYTAMTEPESSLDLEPESTPEPTPEPQPRSSLRASSMCRRSLRSQGLETSLSCGPGDCPEMPLPLIPGERQAGDGTSLPETPNPKMMSAVYAELESRLNSSFKGKIGTMSKSRASPPVPSLVGTSGPRTLSGVSWPSDRLLPSPCYDPLCSGGLASPSSSESHPYASLDSSRAPSPQPGLGSIHADSPPSPDPIRPPSRRKLFAFSRPVRSRDTDRFLDALSEQLGPRLSIVDDFLTPENDYEEMSFHDDQGSFVTNERSSASECVSSSEEGSSLTYSSISDHIPPPPLSPPPPPPLPFHDPKPSSRTSDGPRGPPQSLTKPLTQINHPVPPPPPPPLPPPVPCAPPMLSRGVGHRRSETSHMSVKRLRWEQVENSEGTIWGQLGEDSDYDKLSDMVKYLDLELHFGTQKPPKPVPGPEPFRKKEVVEILSHKKAYNTSILLAHLKLTPGELRQVLMSMEPRRLEPAHLAQLLLFAPDADEEQRYQAFREAPGRLSEPDQFVLQMLSVPEYKTRLRSLHFQATLQEKTEEIRGSLECLRQASLELKNSRKLAKILEFVLAMGNYLNDGQPKTNKTTGFKINFLTELNSTKTVDGKSTFLHILAKSLSQHFPELLGFAQDLPTVPLAAKVNQRALTGDLADLHDTVSEIQVACQSMAPSSEDRFAVVMASFLETAQPALRALDGLQREAMEELGKALAFFGEDSKATTSEAFFGIFSEFMSKFERALSDLQAGDGPRSSGMVSPLAW
B3: tropomodulin 3 (protein, UniProt Q9JHJ0 1-352)
chain: MALPFRKDLGDYKDLDEDELLGKLSESELKQLETVLDDLDPENALLPAGFRQKNQTSKSATGPFDRERLLSYLEKQALEHKDRDDYVPYTGEKKGKIFIPKQKPAQTLTEETISLDPELEEALTSASDTELCDLAAILGMHNLIADTPFCDVLGSSNGVNQERFPNVVKGEKILPVFDEPPNPTNVEESLKRIRENDARLVEVNLNNIKNIPIPTLKDFAKTLEANTHVKHFSLAATRSNDPVAVAFADMLKVNKTLKSLNMESNFITGAGVLALIDALRDNETLMELKIDNQRQQLGTSVELEMAKMLEENTNILKFGYQFTQQGPRTRAANAITKNNDLVRKRRIEGDHQ

Molecular target: IRSp53-EGFP (UniProt Q9UQB8)
Assay: affinity purification with mass spectrometry

binding, binds:
B1, B2, B3

Results are given in words; binding and its absence hold for the method and conditions named. In cells and extracts the contact can be indirect. These calls come from enrichment with a bait or labelling near it, and not all partners need be listed.
